This is one part of the list. Repeats are few or missing, and single values can be far off.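 Cells were imaged in 1,536-well plates, and nuclei stained with an antibody against cleaved PARP were counted against all DNA-stained nuclei to give the apoptosis fraction. Screening doses were chosen to leave most cells alive, and resting and induced cleaved-PARP levels differ strongly between cell lines.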
Columns and labels:
Experiment in all cases: cleaved PARP positive nuclei fraction relative to DMSO control; melanoma cells; higher = more apoptosis
Conditions in all cases: library dose: low library concentration; 72 h
MZ2-MEL = test system: MZ2-MEL
MeWo = test system: MeWo
RPMI7951 = test system: RPMI7951
RVH-421 = test system: RVH-421
SkMel28 = test system: SkMel28
SkMel2 = test system: SkMel2
SkMel30 = test system: SkMel30
SkMel5 = test system: SkMel5
UACC257 = test system: UACC257
UACC62 = test system: UACC62

| Structure (SMILES) | cleaved PARP positive nuclei fraction (MZ2-MEL) | cleaved PARP positive nuclei fraction (MeWo) | cleaved PARP positive nuclei fraction (RPMI7951) | cleaved PARP positive nuclei fraction (RVH-421) | cleaved PARP positive nuclei fraction (SkMel28) | cleaved PARP positive nuclei fraction (SkMel2) | cleaved PARP positive nuclei fraction (SkMel30) | cleaved PARP positive nuclei fraction (SkMel5) | cleaved PARP positive nuclei fraction (UACC257) | cleaved PARP positive nuclei fraction (UACC62) |
| --- | --- | --- | --- | --- | --- | --- | --- | --- | --- | --- |
| CC1(C)CCC(c2ccc(Cl)cc2)=C(CN2CCN(c3ccc(C(=O)NS(=O)(=O)c4ccc(N[C@H](CCN5CCOCC5)CSc5ccccc5)c(S(=O)(=O)C(F)(F)F)c4)cc3)CC2)C1 + N#Cc1c(O)c2c(-c3ccc(-c4ccccc4O)cc3)csc2[nH]c1=O [A769662] (first compound 0.4 µM, partner dose 2 µM) | 203% | 365% | 199% | 131% | 94.9% | 67.9% | 75.4% | 117% | 171% | 118% |
| CCCCCCCCc1ccc(CCC(N)(CO)CO)cc1 [fingolimod] + Cn1cncc1[C@@](N)(c1ccc(Cl)cc1)c1ccc2c(c1)c(-c1cccc(Cl)c1)cc(=O)n2C [tipifarnib] (first compound 2 µM, partner dose 0.01 µM) | 15.1% | 84.4% | 66.1% | 26% | 191% | 93.9% | 73.1% | 66.4% | 116% | 97.7% |
| CC1(C)CCC(c2ccc(Cl)cc2)=C(CN2CCN(c3ccc(C(=O)NS(=O)(=O)c4ccc(N[C@H](CCN5CCOCC5)CSc5ccccc5)c(S(=O)(=O)C(F)(F)F)c4)cc3)CC2)C1 + Cn1cc(/C=C2\C(=O)Nc3cccnc32)c2ccccc21 [GW441756] (first compound 0.4 µM, partner dose 0.4 µM) | 53.8% | 85.1% | 61.6% | 64.7% | 142% | 34.4% | 238% | 116% | 107% | 106% |
| CCN(CC)CCNC(=O)c1c(C)[nH]c(/C=C2\C(=O)Nc3ccc(F)cc32)c1C [sunitinib] + CN(C)S(=O)(=O)c1ccc2c(c1)/C(=C/c1cc3c([nH]1)CCCC3)C(=O)N2 [SU6656] (first compound 0.4 µM, partner dose 0.4 µM) | 112% | 88.9% | 127% | 256% | 86.4% | 66.9% | 71.4% | 94.8% | 85.5% | 71.9% |
| CN(c1ncccc1CNc1nc(Nc2ccc3c(c2)CC(=O)N3)ncc1C(F)(F)F)S(C)(=O)=O + CC(C)(C)c1cnc(CSc2cnc(NC(=O)C3CCNCC3)s2)o1 [SNS-032] (first compound 0.08 µM, partner dose 0.01 µM) | 158% | 221% | 60.9% | 99.9% | 88.2% | 151% | 182% | 98.7% | 74.9% | 207% |
| Cn1cnc2c(F)c(Nc3ccc(Br)cc3Cl)c(C(=O)NOCCO)cc21 [selumetinib] + c1cc(-c2cnn3cc(-c4ccc(OCCN5CCCCC5)cc4)cnc23)ccn1 [Dorsomorphin] (first compound 0.015 µM, partner dose 0.4 µM) | 251% | 59.7% | 46.2% | 155% | 177% | 43.2% | 365% | 188% | 118% | 147% |
| Cn1cnc2c(F)c(Nc3ccc(Br)cc3Cl)c(C(=O)NOCCO)cc21 [selumetinib] + C[C@@H]1CCN(C(=O)CC#N)C[C@@H]1N(C)c1ncnc2[nH]ccc12 [CP690550] (first compound 0.015 µM, partner dose 1 µM) | 232% | 153% | 150% | 74.8% | 280% | 82.3% | 171% | 29.8% | 252% | 386% |
| CCN(CC)CCNC(=O)c1c(C)[nH]c(/C=C2\C(=O)Nc3ccc(F)cc32)c1C [sunitinib] + O=C(O)c1ccc(-c2c[nH]c3ncc(-c4ccccc4)cc23)cc1C1CCCC1 [GSK650394] (first compound 0.4 µM, partner dose 0.16 µM) | 55.3% | 130% | 115% | 88.6% | 91.6% | 90.8% | 169% | 35% | 86.8% | 95.5% |
| C[C@]1(O)C[C@@H](c2nc(-c3ccc4ccc(-c5ccccc5)nc4c3)c3c(N)nccn32)C1 + COc1ccc2c(c1)CCC1C2CCC2(C)C(NCCCCCCN3C(=O)C=CC3=O)CCC12 [U73122] (first compound 0.4 µM, partner dose 0.4 µM) | 185% | 45.1% | 98.4% | 181% | 206% | 89.7% | 44% | 170% | 146% | 1200% |
| Cn1sc(=O)n(Cc2ccccc2)c1=O + CN(C)S(=O)(=O)c1ccc2c(c1)/C(=C/c1cc3c([nH]1)CCCC3)C(=O)N2 [SU6656] (first compound 0.4 µM, partner dose 0.4 µM) | 60.1% | 109% | 171% | 45% | 67.4% | 60.6% | 298% | 34.2% | 74.4% | 79.7% |
| COc1ccc(C2=N[C@@H](c3ccc(Cl)cc3)[C@@H](c3ccc(Cl)cc3)N2C(=O)N2CCNC(=O)C2)c(OC(C)C)c1 [Nutlin-3] + CO[C@@H]1[C@H](N(C)C(=O)c2ccccc2)C[C@H]2O[C@]1(C)n1c3ccccc3c3c4c(c5c6ccccc6n2c5c31)C(=O)NC4 [Midostaurin] (first compound 0.1 µM, partner dose 0.08 µM) | 167% | 110% | 67.2% | 76% | 55.1% | 90% | 62% | 99.4% | 28.1% | 98.2% |
| C[C@]1(O)C[C@@H](c2nc(-c3ccc4ccc(-c5ccccc5)nc4c3)c3c(N)nccn32)C1 + C=CCn1c(=O)c2cnc(Nc3ccc(N4CCN(C)CC4)cc3)nc2n1-c1cccc(C(C)(C)O)n1 [MK1775] (first compound 0.4 µM, partner dose 0.02 µM) | 155% | 78.7% | 178% | 89.9% | 76.9% | 55.7% | 105% | 79.8% | 40.2% | 180% |
| NC1(c2ccc(-c3nc4ccn5c(=O)[nH]nc5c4cc3-c3ccccc3)cc2)CCC1 + O=C(O)c1ccc(-c2c[nH]c3ncc(-c4ccccc4)cc23)cc1C1CCCC1 [GSK650394] (first compound 0.4 µM, partner dose 0.16 µM) | 147% | 397% | 43.5% | 72.5% | 136% | 140% | 62.6% | 131% | 42.5% | 165% |
| C[C@]1(O)C[C@@H](c2nc(-c3ccc4ccc(-c5ccccc5)nc4c3)c3c(N)nccn32)C1 + COc1cc(Nc2ncc(F)c(Nc3ccc4c(n3)NC(=O)C(C)(C)O4)n2)cc(OC)c1OC [Tamatinib] (first compound 0.4 µM, partner dose 0.4 µM) | 198% | 62.4% | 54.6% | 33.2% | 161% | 179% | 185% | 48.2% | 472% | 124% |
| CS(=O)(=O)c1ccc(C(=O)Nc2ccc(Cl)c(-c3ccccn3)c2)c(Cl)c1 [vismodegib] + CCN(CC)CCCCNc1ncc2cc(-c3cc(OC)cc(OC)c3)c(NC(=O)NC(C)(C)C)nc2n1 [PD173074] (first compound 1 µM, partner dose 0.1 µM) | 25.3% | 83.1% | 60.4% | 233% | 118% | 86.7% | 36.1% | 31.6% | 149% | 56.7% |
| NC(=O)c1ccc(N(C(N)=O)c2c(F)cccc2F)nc1-c1ccc(F)cc1F + O=C(O)c1ccc(-c2c[nH]c3ncc(-c4ccccc4)cc23)cc1C1CCCC1 [GSK650394] (first compound 0.4 µM, partner dose 0.16 µM) | 493% | 49.5% | 163% | 88.4% | 173% | 120% | 66% | 143% | 113% | 102% |
| C[C@@H](N)c1ccc(C(=O)Nc2ccnc3[nH]ccc23)cc1 + COc1cc(Nc2ncc(F)c(Nc3ccc4c(n3)NC(=O)C(C)(C)O4)n2)cc(OC)c1OC [Tamatinib] (first compound 0.4 µM, partner dose 0.4 µM) | 219% | 206% | 104% | 38% | 215% | 135% | 54.6% | 419% | 80.2% | 175% |
| CN(c1ncccc1CNc1nc(Nc2ccc3c(c2)CC(=O)N3)ncc1C(F)(F)F)S(C)(=O)=O + O=C(Nc1cccc(Cl)c1)Nc1ncc(CCNc2ncnc3ccsc23)s1 [SNS314] (first compound 0.08 µM, partner dose 0.0008 µM) | 107% | 133% | 242% | 77.1% | 107% | 154% | 65.2% | 122% | 101% | 99.2% |
| Cn1sc(=O)n(Cc2ccccc2)c1=O + OCCn1cc(-c2cnc3nnn(Cc4ccc5ncccc5c4)c3n2)cn1 [PF04217903] (first compound 0.4 µM, partner dose 1 µM) | 78.2% | 242% | 138% | 162% | 120% | 95.1% | 58.3% | 172% | 99.3% | 250% |
| CC(=O)O[C@@]12CO[C@@H]1C[C@H](O)[C@@]1(C)C(=O)[C@H](O)C3=C(C)[C@@H](OC(=O)[C@H](O)[C@@H](NC(=O)OC(C)(C)C)c4ccccc4)C[C@@](O)([C@@H](OC(=O)c4ccccc4)[C@H]21)C3(C)C [Docetaxel] + CN(C)S(=O)(=O)c1ccc2c(c1)/C(=C/c1cc3c([nH]1)CCCC3)C(=O)N2 [SU6656] (first compound 0.0001 µM, partner dose 0.4 µM) | 639% | 296% | 494% | 109% | 312% | 402% | 209% | 104% | 233% | 114% |
| CC(=O)O[C@@]12CO[C@@H]1C[C@H](O)[C@@]1(C)C(=O)[C@H](O)C3=C(C)[C@@H](OC(=O)[C@H](O)[C@@H](NC(=O)OC(C)(C)C)c4ccccc4)C[C@@](O)([C@@H](OC(=O)c4ccccc4)[C@H]21)C3(C)C [Docetaxel] + OCCn1cc(-c2cnc3nnn(Cc4ccc5ncccc5c4)c3n2)cn1 [PF04217903] (first compound 0.0001 µM, partner dose 1 µM) | 620% | 726% | 311% | 256% | 417% | 629% | 190% | 184% | 275% | 716% |

For convenience, some entries already given.

| Structure (SMILES) | cleaved PARP positive nuclei fraction (MZ2-MEL) | cleaved PARP positive nuclei fraction (MeWo) | cleaved PARP positive nuclei fraction (RPMI7951) | cleaved PARP positive nuclei fraction (RVH-421) | cleaved PARP positive nuclei fraction (SkMel28) | cleaved PARP positive nuclei fraction (SkMel2) | cleaved PARP positive nuclei fraction (SkMel30) | cleaved PARP positive nuclei fraction (SkMel5) | cleaved PARP positive nuclei fraction (UACC257) | cleaved PARP positive nuclei fraction (UACC62) |
| --- | --- | --- | --- | --- | --- | --- | --- | --- | --- | --- |
| Cn1sc(=O)n(Cc2ccccc2)c1=O + OCCn1cc(-c2cnc3nnn(Cc4ccc5ncccc5c4)c3n2)cn1 [PF04217903] (first compound 0.4 µM, partner dose 1 µM) | 78.2% | 242% | 138% | 162% | 120% | 95.1% | 58.3% | 172% | 99.3% | 250% |
| CC(=O)O[C@@]12CO[C@@H]1C[C@H](O)[C@@]1(C)C(=O)[C@H](O)C3=C(C)[C@@H](OC(=O)[C@H](O)[C@@H](NC(=O)OC(C)(C)C)c4ccccc4)C[C@@](O)([C@@H](OC(=O)c4ccccc4)[C@H]21)C3(C)C [Docetaxel] + CN(C)S(=O)(=O)c1ccc2c(c1)/C(=C/c1cc3c([nH]1)CCCC3)C(=O)N2 [SU6656] (first compound 0.0001 µM, partner dose 0.4 µM) | 639% | 296% | 494% | 109% | 312% | 402% | 209% | 104% | 233% | 114% |

Source: the supplement of paper PMC4604168 (melanoma cell lines)
